Laboratory results taken from PubChem BioAssay AID2685 (National Center for Advancing Translational Sciences (NCATS), 2010).
The campaign covered roughly 320,000 compounds. About 2,100 (0.66%) were called active. The shares of active, inactive and inconclusive entries below differ from those in the screen. Calls come from the whole dose curve; as a rule, active = well fitted inhibition curve with a large enough effect in the signal ratio, with a control signal flat (not every such curve was filed as active); inconclusive = small, poorly fitted or top-dose-only effect, or effect the other way, or a change in a side signal; inactive = flat fitted curve, though single readings scatter; the % refers to the signal ratio. Potencies beside an inconclusive call are fits to weak or partial responses and may not hold up.

test: qHTS Assay for Lipid Storage Modulators in Drosophila S3 Cells; settings: BODIPY lipid droplet fluorescence, 18-24 h, cells fed with added oleic acid; lipid storage change, negative = inhibition: at 46.1 µM (top of the series) unless noted
Method in brief: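 Drosophila S3 cells got compounds at several concentrations plus oleic acid (400 uM solution). Laser-scanning cytometry with 488 nm excitation read lipid droplets at 500-530 nm and cells at 575-640 nm. Percent activity was relative to 20 uM Triacsin C.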
% is set by controls: 0 for no effect and ±100 for the full control effect; potency is the fitted concentration of half-maximal effect.

| Structure (SMILES) | Potency | lipid storage change, negative = inhibition | outcome |
| --- | --- | --- | --- |
| CCOc1ccc(C(=O)Nc2cccc(-c3cc4ccccc4oc3=O)c2)cc1[N+](=O)[O-] | inconclusive: 8.2 µM [falling, partial curve] |  |  |
| CCn1c2ccccc2c2nc3cc(S(=O)(=O)N4CCOCC4)ccc3nc21 | inconclusive: 16.4 µM [falling, partial curve, poor fit] |  |  |
| CCc1cccc2c(C(=S)N3CCCC3)c[nH]c12 |  | inconclusive: -11.6% |  |
| O=C(COc1ccc(Cl)cc1)N/N=C/CCc1ccccc1 |  | inconclusive: -36% |  |
| O=C(N/N=C/c1cccs1)c1cncc(Br)c1 |  | inconclusive: 11.8% |  |
| N#Cc1ccsc1NC(=O)COC(=O)c1ccc2ccccc2c1 |  | inconclusive: 29% |  |
| COc1ccc(S(=O)(=O)N2CCCC(C(=O)NCCc3ccccc3)C2)cc1 (stereo not drawn) |  | inconclusive: -42.9% |  |
| CC(C)N1CC(C(=O)Nc2ccc(Br)c(Cl)c2)CC1=O (stereo not drawn) | inconclusive: 6.51 µM [activator, single point] |  |  |
| CC1(C)CC(=O)C(C(c2ccc(Br)cc2)C2C(=O)CC(C)(C)CC2=O)C(=O)C1 |  | inconclusive: 161% |  |
| Cn1c(=O)[nH]c(=O)c2c1nc(N/N=C/C(Br)=C/c1ccccc1)n2CCO |  | inconclusive: 16.1% |  |
| CC(=O)N1CCc2cc(Br)cc(S(=O)(=O)N3CCC(C(=O)O)CC3)c21 | inconclusive: 0.731 µM [falling, full curve, poor fit] |  |  |
| Cc1ccnc(SCCn2c(Br)nc3c2c(=O)[nH]c(=O)n3C)n1 |  | inconclusive: 10.2% |  |
| COc1cccc(NC(=O)CSc2nc(C)cs2)c1 | inconclusive: 2.91 µM [falling, partial curve, poor fit] |  |  |
| CCOc1ccccc1NS(=O)(=O)c1cn(C)nc1C |  | inconclusive: -37.3% [at 0.00295 µM] |  |
| CN1CCc2nc(NC(=O)c3cccc(S(=O)(=O)N4CCc5ccccc54)c3)sc2C1 |  |  | inactive [at 46.1 µM] |
| NS(=O)(=O)c1ccc(NC(=S)NC(=O)c2cccs2)cc1 |  | inactive: -5.53% |  |
| COc1ccc(OCCOC(=O)C(C)NS(=O)(=O)c2ccc(NC(C)=O)cc2)cc1 (stereo not drawn) |  | inconclusive: -90.3% |  |
| Cc1ccc(-c2c(C)sc3nc(CN4CCN(CC(=O)NC5CC5)CC4)[nH]c(=O)c23)cc1 |  | inconclusive: -6.77% |  |
| COc1ccc(CCNC(=O)C(=O)NCC2OCCCN2S(=O)(=O)c2cc(C)ccc2C)cc1 (stereo not drawn) |  | inconclusive: -58.3% |  |

By substructure: the compounds so far containing a Cl atom

| Structure (SMILES) | Potency | lipid storage change, negative = inhibition | outcome |
| --- | --- | --- | --- |
| O=C(COc1ccc(Cl)cc1)N/N=C/CCc1ccccc1 |  | inconclusive: -36% |  |
| CC(C)N1CC(C(=O)Nc2ccc(Br)c(Cl)c2)CC1=O (stereo not drawn) | inconclusive: 6.51 µM [activator, single point] |  |  |

Next compounds follow.

| Structure (SMILES) | Potency | lipid storage change, negative = inhibition | outcome |
| --- | --- | --- | --- |
| Cc1oc(C(=O)Nc2ccc(C(=O)O)cc2)cc1COc1ccccc1 |  | inconclusive: 48.4% |  |
| CC(C)N1C(=O)CC(Nc2cccc3cccc(N)c23)C1=O (stereo not drawn) |  | inconclusive: 5.83% |  |
| Cc1nn(C)c(Cl)c1/C=N/OC(=O)c1ccccc1 |  | inconclusive: -33% [cytotoxic] [at 0.369 µM] |  |
| COc1ccc(NC(=O)CS(=O)CC(=O)Nc2cccc3cccnc23)cc1 (stereo not drawn) | inconclusive: 2.91 µM [activator, full curve, poor fit] |  |  |
| COC(=O)c1sc(NC(=O)COc2cccc3ccccc23)nc1C | inconclusive: 5.8 µM [falling, full curve, poor fit] |  |  |
| Cc1nc(CN2CCCC2=NC#N)n(-c2ccccc2)n1 |  | inactive: -0.104% |  |
| Cc1ccc(NC(=O)CCN2CCC(Cc3ccccc3)CC2)cc1 |  | inconclusive: -46.6% |  |
| O=C(CSc1nc(C(F)(F)F)cc(=O)[nH]1)N1CCCCCC1 |  | inconclusive: 14.9% |  |
| CCCCNc1oc(-c2cccs2)nc1S(=O)(=O)c1ccccc1 |  | inconclusive: 1.58% |  |
| Cc1ccccc1OCC(=O)Nc1cccc(S(=O)(=O)NC2=NCCCCC2)c1 | inconclusive: 0.259 µM [rising, full curve] |  |  |
| COc1ccc(Cl)cc1-c1nc(SCC(=O)NC(C)(C)C)n[nH]1 |  | inconclusive: -53.4% |  |
| Cc1ccc(S(=O)(=O)N2CCOC2CNC(=O)C(=O)NCc2ccc(Cl)cc2)cc1 (stereo not drawn) | inconclusive: 7.31 µM [activator, partial curve, poor fit] |  |  |
| CS(=O)(=O)c1cccc(-c2nnc(NC(=O)c3ccc(S(=O)(=O)N4CCCC4)cc3)o2)c1 |  | inconclusive: 1.89% |  |
| CN(C)S(=O)(=O)n1cc(/C=C(\NC(=O)c2ccccc2F)C(=O)N2CCCC2)c2ccccc21 | inconclusive: 6.51 µM [activator, single point] |  |  |
| Cc1cc(NC(=O)CCC(=O)N(c2ccccc2)C2(C(=O)NC3CCCCC3)CCCC2)no1 |  | inconclusive: -4.36% |  |
| O=c1n(Cc2ccccc2)nc2n1-c1ccccc1SC2 |  | inconclusive: 12.7% |  |
| CC(=O)c1c(C)[nH]c(C(=O)NCCC2=CCCCC2)c1C |  | inconclusive: 0.958% |  |
| COc1ccc(C)cc1N(CC(=O)NCCSCc1ccco1)S(=O)(=O)c1ccc(C)cc1 |  | inconclusive: 17.8% |  |
| Cc1ccc(S(=O)(=O)N2CCC3(CC2)CC(=O)c2ccccc2O3)cc1 | inconclusive: 2.06 µM [falling, single point] |  |  |
